These are yes or no findings as the source states them, for the method shown. In cells and extracts the contact can be indirect. These calls come from enrichment with a bait or labelling near it, and not all partners need be listed.
Key:
Assay in all cases: affinity purification with mass spectrometry
[1] = target: ASXL2 (human) (UniProt Q76L83)
[2] = target: ASXL1 (human) (UniProt Q8IXJ9)
[3] = target: T1, RING1 (human), Q06587; conditions: remark: other sources report otherwise
T1 chain: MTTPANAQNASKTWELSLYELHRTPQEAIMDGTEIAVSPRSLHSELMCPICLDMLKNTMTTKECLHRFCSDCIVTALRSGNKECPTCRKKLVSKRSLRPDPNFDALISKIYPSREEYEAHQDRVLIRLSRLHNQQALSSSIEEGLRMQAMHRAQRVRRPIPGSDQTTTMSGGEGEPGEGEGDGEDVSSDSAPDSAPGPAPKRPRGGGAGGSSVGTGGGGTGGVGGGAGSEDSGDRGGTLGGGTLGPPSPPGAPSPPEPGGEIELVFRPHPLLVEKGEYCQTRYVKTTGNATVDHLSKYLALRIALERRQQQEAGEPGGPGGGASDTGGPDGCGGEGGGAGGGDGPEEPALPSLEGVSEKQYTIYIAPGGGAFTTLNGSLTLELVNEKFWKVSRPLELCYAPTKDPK

Protein sequences, listed by entry. Tags and fused reporters are not part of them.
UniProt Q76L83: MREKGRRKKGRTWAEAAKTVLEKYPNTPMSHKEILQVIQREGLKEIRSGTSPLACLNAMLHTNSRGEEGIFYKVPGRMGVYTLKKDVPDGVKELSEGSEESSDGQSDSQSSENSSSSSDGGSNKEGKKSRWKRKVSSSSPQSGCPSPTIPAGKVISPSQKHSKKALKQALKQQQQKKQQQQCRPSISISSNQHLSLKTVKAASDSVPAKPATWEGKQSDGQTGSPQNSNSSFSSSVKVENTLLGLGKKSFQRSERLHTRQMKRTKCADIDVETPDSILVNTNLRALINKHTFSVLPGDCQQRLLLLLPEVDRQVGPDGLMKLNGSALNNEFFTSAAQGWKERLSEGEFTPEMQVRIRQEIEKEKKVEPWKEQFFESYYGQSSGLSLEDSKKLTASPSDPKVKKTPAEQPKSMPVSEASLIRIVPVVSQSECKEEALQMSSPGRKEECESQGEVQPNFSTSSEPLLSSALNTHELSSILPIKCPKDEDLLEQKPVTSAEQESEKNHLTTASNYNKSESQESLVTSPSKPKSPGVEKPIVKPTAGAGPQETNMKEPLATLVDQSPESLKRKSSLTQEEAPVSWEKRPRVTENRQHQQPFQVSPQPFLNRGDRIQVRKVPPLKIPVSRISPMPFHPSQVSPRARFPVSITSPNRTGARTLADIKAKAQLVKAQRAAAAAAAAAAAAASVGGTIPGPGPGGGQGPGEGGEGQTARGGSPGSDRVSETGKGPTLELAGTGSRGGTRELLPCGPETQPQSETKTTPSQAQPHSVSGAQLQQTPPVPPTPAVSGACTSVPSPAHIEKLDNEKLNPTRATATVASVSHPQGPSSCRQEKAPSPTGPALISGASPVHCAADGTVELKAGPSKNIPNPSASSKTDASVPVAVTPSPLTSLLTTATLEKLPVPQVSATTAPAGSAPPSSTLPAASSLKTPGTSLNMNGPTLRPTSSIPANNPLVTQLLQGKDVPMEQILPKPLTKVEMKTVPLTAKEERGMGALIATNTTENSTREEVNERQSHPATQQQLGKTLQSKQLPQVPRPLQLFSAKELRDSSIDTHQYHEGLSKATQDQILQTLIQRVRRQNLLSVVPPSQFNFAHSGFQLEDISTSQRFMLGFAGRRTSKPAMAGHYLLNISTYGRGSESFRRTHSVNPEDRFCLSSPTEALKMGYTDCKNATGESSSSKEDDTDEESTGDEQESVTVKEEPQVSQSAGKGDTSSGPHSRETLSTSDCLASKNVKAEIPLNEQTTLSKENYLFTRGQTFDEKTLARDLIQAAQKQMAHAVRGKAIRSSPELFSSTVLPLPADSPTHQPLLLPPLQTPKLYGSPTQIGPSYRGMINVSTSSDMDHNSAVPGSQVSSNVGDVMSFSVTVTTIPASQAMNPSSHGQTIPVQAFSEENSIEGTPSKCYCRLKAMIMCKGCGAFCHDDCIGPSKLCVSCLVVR
UniProt Q8IXJ9: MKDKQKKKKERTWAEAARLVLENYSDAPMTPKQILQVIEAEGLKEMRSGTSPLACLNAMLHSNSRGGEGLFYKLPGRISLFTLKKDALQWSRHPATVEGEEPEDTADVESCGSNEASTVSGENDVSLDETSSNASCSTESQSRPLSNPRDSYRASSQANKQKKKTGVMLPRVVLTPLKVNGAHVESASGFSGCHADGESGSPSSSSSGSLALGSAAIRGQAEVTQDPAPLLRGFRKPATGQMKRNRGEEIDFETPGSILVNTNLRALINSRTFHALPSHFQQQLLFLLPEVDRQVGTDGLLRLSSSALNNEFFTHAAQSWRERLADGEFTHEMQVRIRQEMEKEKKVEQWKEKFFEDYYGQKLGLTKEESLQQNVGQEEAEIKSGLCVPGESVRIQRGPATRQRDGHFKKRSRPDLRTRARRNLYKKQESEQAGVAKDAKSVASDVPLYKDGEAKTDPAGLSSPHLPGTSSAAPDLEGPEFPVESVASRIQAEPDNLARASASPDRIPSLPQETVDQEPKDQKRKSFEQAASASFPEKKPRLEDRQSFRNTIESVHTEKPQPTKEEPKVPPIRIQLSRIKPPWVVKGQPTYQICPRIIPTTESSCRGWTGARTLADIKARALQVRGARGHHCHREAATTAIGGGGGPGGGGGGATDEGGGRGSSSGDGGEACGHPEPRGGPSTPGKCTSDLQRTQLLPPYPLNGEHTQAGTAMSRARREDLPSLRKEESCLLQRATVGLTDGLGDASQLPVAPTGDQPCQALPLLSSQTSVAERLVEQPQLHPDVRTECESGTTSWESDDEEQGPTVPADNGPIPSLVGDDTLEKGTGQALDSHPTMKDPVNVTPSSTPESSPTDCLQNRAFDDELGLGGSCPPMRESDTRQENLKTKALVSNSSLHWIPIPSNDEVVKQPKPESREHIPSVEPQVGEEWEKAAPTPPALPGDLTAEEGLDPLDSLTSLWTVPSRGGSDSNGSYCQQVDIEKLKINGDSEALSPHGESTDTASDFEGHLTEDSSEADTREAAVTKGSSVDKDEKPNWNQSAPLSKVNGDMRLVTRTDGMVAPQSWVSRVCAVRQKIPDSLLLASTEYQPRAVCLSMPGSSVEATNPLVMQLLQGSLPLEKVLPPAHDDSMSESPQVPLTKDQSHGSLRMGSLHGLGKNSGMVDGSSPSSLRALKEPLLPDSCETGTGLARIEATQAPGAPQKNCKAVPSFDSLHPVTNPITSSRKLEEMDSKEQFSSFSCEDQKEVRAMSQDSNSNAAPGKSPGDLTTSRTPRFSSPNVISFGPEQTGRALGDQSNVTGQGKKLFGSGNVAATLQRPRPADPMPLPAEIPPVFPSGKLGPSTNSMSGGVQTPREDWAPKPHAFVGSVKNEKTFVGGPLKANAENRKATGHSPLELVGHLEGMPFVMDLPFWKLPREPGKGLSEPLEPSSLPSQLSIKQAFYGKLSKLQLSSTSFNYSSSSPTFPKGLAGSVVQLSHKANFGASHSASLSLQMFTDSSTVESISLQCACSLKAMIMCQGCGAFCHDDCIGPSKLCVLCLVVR
UniProt O95931: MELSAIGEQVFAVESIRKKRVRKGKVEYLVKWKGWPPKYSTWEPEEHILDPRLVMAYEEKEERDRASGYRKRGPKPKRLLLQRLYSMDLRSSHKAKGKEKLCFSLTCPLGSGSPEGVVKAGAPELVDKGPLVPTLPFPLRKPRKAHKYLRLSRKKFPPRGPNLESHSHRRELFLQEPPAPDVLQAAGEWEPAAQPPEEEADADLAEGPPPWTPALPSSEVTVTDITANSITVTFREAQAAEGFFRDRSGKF
UniProt P35226: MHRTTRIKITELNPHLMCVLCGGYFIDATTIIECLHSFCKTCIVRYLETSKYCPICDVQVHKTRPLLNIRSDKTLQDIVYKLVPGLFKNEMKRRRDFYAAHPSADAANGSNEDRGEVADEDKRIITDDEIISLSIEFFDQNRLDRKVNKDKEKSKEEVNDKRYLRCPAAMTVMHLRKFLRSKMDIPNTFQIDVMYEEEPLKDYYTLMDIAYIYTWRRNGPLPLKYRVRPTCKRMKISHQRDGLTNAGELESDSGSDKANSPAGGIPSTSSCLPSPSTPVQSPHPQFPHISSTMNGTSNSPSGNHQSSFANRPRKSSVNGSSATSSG
UniProt Q14781: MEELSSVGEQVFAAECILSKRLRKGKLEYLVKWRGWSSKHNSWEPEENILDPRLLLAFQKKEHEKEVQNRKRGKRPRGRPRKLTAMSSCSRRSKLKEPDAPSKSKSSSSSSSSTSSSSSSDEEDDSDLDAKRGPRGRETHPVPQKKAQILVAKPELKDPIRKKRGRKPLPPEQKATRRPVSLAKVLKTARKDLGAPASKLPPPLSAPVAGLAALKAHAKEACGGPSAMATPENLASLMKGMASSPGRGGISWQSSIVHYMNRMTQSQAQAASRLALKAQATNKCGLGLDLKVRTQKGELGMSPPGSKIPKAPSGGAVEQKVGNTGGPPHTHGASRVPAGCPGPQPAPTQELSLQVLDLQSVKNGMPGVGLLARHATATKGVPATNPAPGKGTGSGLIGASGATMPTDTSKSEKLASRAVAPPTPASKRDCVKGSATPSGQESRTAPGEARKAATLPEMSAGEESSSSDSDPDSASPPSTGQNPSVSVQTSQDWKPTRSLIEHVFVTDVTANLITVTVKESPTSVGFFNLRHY

[4] = target: T2, CBX6 (human) (UniProt O95503)
T2 sequence: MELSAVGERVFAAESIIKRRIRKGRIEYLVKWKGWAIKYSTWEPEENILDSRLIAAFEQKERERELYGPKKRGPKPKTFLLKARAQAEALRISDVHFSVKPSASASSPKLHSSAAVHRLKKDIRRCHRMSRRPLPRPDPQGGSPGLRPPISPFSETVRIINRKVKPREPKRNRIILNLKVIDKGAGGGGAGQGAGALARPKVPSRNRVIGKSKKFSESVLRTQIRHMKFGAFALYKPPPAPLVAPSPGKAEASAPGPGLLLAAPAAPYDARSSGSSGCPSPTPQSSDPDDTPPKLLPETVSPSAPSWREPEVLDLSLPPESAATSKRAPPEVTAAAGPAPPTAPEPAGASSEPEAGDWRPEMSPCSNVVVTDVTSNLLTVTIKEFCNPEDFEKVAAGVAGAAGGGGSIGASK

[5] = target: CBX7 (human) (UniProt O95931)
[6] = target: PCGF4 (human) (UniProt P35226)
[7] = target: T3, PHC3 (human) (UniProt Q8NDX5)
T3 sequence: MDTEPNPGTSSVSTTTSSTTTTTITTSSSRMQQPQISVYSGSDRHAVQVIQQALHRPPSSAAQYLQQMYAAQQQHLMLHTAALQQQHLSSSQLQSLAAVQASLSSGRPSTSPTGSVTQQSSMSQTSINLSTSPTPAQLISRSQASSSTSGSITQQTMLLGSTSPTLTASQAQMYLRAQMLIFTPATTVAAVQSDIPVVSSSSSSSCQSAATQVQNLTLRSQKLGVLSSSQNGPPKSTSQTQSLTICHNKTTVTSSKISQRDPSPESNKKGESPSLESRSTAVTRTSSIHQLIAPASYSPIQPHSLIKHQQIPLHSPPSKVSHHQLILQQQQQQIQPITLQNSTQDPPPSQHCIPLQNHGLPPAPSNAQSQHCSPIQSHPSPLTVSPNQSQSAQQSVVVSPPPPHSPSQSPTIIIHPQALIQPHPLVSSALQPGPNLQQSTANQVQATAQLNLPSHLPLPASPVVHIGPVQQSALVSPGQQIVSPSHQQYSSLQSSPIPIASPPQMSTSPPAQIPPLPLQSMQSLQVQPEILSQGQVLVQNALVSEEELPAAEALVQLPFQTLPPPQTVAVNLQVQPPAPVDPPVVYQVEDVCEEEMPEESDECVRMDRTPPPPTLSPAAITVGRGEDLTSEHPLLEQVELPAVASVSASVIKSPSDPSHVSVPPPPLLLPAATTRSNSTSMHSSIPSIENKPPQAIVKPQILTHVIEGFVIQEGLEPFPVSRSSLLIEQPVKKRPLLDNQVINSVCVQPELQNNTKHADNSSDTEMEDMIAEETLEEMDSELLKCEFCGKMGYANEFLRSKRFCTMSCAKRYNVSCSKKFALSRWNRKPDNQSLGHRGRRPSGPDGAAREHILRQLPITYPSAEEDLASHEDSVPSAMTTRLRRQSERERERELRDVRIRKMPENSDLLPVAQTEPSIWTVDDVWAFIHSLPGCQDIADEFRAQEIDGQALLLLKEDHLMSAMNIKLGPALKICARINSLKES

[8] = target: CBX2 (human) (UniProt Q14781)
[9] = target: SUZ12 (human), Q15022; conditions: remark: other sources report otherwise
[10] = target: EED (human), O75530; conditions: remark: other sources report otherwise
[11] = target: T4, EZH1 (human), Q92800; conditions: remark: other sources report otherwise
T4 chain: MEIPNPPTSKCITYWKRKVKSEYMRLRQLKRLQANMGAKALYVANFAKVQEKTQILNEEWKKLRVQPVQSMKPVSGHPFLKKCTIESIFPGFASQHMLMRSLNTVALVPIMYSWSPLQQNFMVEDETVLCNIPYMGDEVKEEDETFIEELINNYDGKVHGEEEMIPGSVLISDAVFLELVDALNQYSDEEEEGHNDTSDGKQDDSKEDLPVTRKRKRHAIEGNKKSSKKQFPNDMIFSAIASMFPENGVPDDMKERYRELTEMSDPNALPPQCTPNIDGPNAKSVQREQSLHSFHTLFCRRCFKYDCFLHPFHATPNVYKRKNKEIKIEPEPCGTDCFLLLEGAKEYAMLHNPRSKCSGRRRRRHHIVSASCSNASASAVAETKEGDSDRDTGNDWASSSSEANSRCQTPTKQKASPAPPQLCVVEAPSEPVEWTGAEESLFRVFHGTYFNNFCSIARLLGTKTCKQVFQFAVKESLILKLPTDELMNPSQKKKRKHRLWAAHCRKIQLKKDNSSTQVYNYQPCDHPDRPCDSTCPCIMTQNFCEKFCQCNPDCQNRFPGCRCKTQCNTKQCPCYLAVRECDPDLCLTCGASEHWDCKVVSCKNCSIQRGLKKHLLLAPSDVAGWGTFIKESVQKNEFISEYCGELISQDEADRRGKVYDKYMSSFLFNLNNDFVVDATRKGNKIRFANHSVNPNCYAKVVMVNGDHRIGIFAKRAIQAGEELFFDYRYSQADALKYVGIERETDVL

B1: OGT1 (enzyme, UniProt O15294 1-1046)
chain: MASSVGNVADSTEPTKRMLSFQGLAELAHREYQAGDFEAAERHCMQLWRQEPDNTGVLLLLSSIHFQCRRLDRSAHFSTLAIKQNPLLAEAYSNLGNVYKERGQLQEAIEHYRHALRLKPDFIDGYINLAAALVAAGDMEGAVQAYVSALQYNPDLYCVRSDLGNLLKALGRLEEAKACYLKAIETQPNFAVAWSNLGCVFNAQGEIWLAIHHFEKAVTLDPNFLDAYINLGNVLKEARIFDRAVAAYLRALSLSPNHAVVHGNLACVYYEQGLIDLAIDTYRRAIELQPHFPDAYCNLANALKEKGSVAEAEDCYNTALRLCPTHADSLNNLANIKREQGNIEEAVRLYRKALEVFPEFAAAHSNLASVLQQQGKLQEALMHYKEAIRISPTFADAYSNMGNTLKEMQDVQGALQCYTRAIQINPAFADAHSNLASIHKDSGNIPEAIASYRTALKLKPDFPDAYCNLAHCLQIVCDWTDYDERMKKLVSIVADQLEKNRLPSVHPHHSMLYPLSHGFRKAIAERHGNLCLDKINVLHKPPYEHPKDLKLSDGRLRVGYVSSDFGNHPTSHLMQSIPGMHNPDKFEVFCYALSPDDGTNFRVKVMAEANHFIDLSQIPCNGKAADRIHQDGIHILVNMNGYTKGARNELFALRPAPIQAMWLGYPGTSGALFMDYIITDQETSPAEVAEQYSEKLAYMPHTFFIGDHANMFPHLKKKAVIDFKSNGHIYDNRIVLNGIDLKAFLDSLPDVKIVKMKCPDGGDNADSSNTALNMPVIPMNTIAEAVIEMINRGQIQITINGFSISNGLATTQINNKAATGEEVPRTIIVTTRSQYGLPEDAIVYCNFNQLYKIDPSTLQMWANILKRVPNSVLWLLRFPAVGEPNIQQYAQNMGLPQNRIIFSPVAPKEEHVRRGQLADVCLDTPLCNGHTTGMDVLWAGTPMVTMPGETLASRVAASQLTCLGCLELIAKNRQEYEDIAVKLGTDLEYLKKVRGKVWKQRISSPLFNTKQYTMELERLYLQMWEHYAAGNKPDHMIKPVEVTESA
In the case of B1, the binding [1] is reported as “binds” and the binding [2] is reported as “binds”.

B2: PCGF6, Q9BYE7 1-350 (protein)
chain: MEGVAVVTAGSVGAAKTEGAAALPPPPPVSPPALTPAPAAGEEGPAPLSETGAPGCSGSRPPELEPERSLGRFRGRFEDEDEELEEEEELEEEEEEEEEDMSHFSLRLEGGRQDSEDEEERLINLSELTPYILCSICKGYLIDATTITECLHTFCKSCIVRHFYYSNRCPKCNIVVHQTQPLYNIRLDRQLQDIVYKLVINLEEREKKQMHDFYKERGLEVPKPAVPQPVPSSKGRSKKVLESVFRIPPELDMSLLLEFIGANEGTGHFKPLEKKFVRVSGEATIGHVEKFLRRKMGLDPACQVDIICGDHLLEQYQTLREIRRAIGDAAMQDGLLVLHYGLVVSPLKIT
For B2, the binding [3] was “binds”.

B3: NUFP2 (Nuclear fragile X mental retardation interacting protein 2) (protein, UniProt Q7Z417 1-695)
chain: MEEKPGQPQPQHHHSHHHPHHHPQQQQQQPHHHHHYYFYNHSHNHHHHHHHQQPHQYLQHGAEGSPKAQPKPLKHEQKHTLQQHQETPKKKTGYGELNGNAGEREISLKNLSSDEATNPISRVLNGNQQVVDTSLKQTVKANTFGKAGIKTKNFIQKNSMDKKNGKSYENKSGENQSVDKSDTIPIPNGVVTNNSGYITNGYMGKGADNDGSGSESGYTTPKKRKARRNSAKGCENLNIVQDKIMQQETSVPTLKQGLETFKPDYSEQKGNRVDGSKPIWKYETGPGGTSRGKPAVGDMLRKSSDSKPGVSSKKFDDRPKGKHASAVASKEDSWTLFKPPPVFPVDNSSAKIVPKISYASKVKENLNKTIQNSSVSPTSSSSSSSSTGETQTQSSSRLSQVPMSALKSVTSANFSNGPVLAGTDGNVYPPGGQPLLTTAANTLTPISSGTDSVLQDMSLTSAAVEQIKTSLFIYPSNMQTMLLSTAQVDLPSQTDQQNLGDIFQNQWGLSFINEPSAGPETVTGKSSEHKVMEVTFQGEYPATLVSQGAEIIPSGTEHPVFPKAYELEKRTSPQVLGSILKSGTTSESGALSLEPSHIGDLQKADTSSQGALVFLSKDYEIESQNPLASPTNTLLGSAKEQRYQRGLERNDSWGSFDLRAAIVYHTKEMESIWNLQKQDPKRIITYNEAMDSPDQ
B3 was tested, and the binding [4] was “binds”, the binding [5] was “binds” and the binding [6] was “binds”. The binding [7] was “binds” and the binding [8] was “binds”.

B4: RBBP7, Q16576 1-425 (protein)
chain: MASKEMFEDTVEERVINEEYKIWKKNTPFLYDLVMTHALQWPSLTVQWLPEVTKPEGKDYALHWLVLGTHTSDEQNHLVVARVHIPNDDAQFDASHCDSDKGEFGGFGSVTGKIECEIKINHEGEVNRARYMPQNPHIIATKTPSSDVLVFDYTKHPAKPDPSGECNPDLRLRGHQKEGYGLSWNSNLSGHLLSASDDHTVCLWDINAGPKEGKIVDAKAIFTGHSAVVEDVAWHLLHESLFGSVADDQKLMIWDTRSNTTSKPSHLVDAHTAEVNCLSFNPYSEFILATGSADKTVALWDLRNLKLKLHTFESHKDEIFQVHWSPHNETILASSGTDRRLNVWDLSKIGEEQSAEDAEDGPPELLFIHGGHTAKISDFSWNPNEPWVICSVSEDNIMQIWQMAENIYNDEESDVTTSELEGQGS
B4 was tested, and the binding [9] was “binds”, the binding [10] was “binds” and the binding [11] was “binds”.
